The source of these data is publication PMC3307773.

The chains behind the UniProt entries cited, without tags or fusion partners.
UniProt Q12824: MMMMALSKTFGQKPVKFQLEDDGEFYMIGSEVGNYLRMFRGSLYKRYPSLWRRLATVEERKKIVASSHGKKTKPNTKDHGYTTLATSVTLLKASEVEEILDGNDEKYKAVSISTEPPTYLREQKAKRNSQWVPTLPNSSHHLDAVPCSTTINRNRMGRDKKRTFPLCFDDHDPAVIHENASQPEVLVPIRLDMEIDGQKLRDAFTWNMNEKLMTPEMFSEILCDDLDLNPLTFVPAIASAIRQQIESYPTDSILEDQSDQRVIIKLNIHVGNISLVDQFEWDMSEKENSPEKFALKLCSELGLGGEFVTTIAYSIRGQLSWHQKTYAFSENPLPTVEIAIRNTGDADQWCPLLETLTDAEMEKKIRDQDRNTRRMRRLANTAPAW
UniProt Q92784: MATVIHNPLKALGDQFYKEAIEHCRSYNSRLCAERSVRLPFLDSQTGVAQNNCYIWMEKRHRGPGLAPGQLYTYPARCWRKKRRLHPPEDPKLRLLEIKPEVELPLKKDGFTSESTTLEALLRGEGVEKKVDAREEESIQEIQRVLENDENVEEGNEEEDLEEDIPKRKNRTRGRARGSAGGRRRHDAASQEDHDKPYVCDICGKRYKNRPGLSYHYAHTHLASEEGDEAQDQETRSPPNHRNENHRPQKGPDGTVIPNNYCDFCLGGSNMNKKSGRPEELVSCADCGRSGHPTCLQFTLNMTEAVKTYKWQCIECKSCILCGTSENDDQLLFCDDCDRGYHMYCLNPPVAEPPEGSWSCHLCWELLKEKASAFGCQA
UniProt Q6STE5: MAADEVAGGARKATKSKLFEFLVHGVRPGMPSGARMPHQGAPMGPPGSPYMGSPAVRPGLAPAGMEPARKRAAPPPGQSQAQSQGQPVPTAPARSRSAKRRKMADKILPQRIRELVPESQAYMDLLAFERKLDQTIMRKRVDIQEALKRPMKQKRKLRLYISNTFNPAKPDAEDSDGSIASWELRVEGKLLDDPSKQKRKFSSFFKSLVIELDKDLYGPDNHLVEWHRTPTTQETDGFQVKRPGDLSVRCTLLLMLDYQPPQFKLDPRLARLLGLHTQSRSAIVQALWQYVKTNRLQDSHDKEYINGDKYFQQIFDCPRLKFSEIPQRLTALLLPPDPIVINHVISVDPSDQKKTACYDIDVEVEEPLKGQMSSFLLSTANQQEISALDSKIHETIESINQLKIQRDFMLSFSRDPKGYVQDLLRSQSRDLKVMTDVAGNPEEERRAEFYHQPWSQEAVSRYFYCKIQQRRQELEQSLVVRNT
UniProt Q14980: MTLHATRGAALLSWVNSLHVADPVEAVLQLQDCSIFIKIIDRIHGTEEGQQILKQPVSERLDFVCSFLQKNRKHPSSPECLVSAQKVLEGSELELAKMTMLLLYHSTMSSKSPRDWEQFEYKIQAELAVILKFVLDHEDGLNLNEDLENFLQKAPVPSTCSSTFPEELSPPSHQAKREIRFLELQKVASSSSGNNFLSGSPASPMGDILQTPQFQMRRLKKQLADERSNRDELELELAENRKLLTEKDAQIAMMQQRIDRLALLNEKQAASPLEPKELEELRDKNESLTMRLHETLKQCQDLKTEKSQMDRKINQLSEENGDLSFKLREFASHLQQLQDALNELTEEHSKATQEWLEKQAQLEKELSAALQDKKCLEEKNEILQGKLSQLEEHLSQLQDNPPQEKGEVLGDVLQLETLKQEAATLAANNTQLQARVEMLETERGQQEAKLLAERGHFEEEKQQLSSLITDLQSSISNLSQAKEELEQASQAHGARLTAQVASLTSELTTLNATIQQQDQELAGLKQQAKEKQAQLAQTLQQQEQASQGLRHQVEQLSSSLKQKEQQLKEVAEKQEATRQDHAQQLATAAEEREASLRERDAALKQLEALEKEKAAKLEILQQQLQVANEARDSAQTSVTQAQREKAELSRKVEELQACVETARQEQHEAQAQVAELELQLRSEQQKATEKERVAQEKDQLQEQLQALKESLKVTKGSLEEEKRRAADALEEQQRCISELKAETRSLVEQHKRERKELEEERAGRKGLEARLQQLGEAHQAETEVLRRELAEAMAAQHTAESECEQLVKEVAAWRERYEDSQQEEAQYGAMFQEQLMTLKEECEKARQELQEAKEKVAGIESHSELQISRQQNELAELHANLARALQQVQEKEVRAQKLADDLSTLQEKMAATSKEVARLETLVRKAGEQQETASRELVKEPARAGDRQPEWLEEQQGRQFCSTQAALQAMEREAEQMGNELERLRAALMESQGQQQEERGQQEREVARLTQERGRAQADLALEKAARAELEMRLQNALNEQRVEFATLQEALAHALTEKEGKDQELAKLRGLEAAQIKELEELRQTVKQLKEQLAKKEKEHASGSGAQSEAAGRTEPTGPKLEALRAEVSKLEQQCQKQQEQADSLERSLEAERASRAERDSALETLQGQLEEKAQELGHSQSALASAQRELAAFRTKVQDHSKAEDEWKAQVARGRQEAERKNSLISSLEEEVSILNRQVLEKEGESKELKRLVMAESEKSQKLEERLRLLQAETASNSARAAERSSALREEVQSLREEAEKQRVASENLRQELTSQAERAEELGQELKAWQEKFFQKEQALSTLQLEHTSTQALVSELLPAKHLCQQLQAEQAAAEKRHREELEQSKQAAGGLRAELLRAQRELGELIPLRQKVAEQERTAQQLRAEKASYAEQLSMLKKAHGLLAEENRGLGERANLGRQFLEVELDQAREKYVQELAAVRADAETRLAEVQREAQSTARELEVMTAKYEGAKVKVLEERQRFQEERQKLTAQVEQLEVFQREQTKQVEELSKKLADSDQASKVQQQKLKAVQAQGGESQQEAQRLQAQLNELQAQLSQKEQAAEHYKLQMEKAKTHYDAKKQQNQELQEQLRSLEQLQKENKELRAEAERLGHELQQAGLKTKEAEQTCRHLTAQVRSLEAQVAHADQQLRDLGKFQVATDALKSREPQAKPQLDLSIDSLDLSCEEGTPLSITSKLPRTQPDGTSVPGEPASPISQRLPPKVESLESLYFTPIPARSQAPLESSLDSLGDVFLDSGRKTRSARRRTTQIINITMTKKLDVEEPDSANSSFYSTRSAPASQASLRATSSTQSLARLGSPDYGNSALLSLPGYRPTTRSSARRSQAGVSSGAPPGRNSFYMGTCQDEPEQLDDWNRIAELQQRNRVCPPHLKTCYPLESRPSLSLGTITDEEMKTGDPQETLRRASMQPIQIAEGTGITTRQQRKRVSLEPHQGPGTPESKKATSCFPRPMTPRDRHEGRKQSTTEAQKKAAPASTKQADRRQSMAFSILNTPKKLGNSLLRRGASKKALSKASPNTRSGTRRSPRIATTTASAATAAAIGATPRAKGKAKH
UniProt Q9UQ35: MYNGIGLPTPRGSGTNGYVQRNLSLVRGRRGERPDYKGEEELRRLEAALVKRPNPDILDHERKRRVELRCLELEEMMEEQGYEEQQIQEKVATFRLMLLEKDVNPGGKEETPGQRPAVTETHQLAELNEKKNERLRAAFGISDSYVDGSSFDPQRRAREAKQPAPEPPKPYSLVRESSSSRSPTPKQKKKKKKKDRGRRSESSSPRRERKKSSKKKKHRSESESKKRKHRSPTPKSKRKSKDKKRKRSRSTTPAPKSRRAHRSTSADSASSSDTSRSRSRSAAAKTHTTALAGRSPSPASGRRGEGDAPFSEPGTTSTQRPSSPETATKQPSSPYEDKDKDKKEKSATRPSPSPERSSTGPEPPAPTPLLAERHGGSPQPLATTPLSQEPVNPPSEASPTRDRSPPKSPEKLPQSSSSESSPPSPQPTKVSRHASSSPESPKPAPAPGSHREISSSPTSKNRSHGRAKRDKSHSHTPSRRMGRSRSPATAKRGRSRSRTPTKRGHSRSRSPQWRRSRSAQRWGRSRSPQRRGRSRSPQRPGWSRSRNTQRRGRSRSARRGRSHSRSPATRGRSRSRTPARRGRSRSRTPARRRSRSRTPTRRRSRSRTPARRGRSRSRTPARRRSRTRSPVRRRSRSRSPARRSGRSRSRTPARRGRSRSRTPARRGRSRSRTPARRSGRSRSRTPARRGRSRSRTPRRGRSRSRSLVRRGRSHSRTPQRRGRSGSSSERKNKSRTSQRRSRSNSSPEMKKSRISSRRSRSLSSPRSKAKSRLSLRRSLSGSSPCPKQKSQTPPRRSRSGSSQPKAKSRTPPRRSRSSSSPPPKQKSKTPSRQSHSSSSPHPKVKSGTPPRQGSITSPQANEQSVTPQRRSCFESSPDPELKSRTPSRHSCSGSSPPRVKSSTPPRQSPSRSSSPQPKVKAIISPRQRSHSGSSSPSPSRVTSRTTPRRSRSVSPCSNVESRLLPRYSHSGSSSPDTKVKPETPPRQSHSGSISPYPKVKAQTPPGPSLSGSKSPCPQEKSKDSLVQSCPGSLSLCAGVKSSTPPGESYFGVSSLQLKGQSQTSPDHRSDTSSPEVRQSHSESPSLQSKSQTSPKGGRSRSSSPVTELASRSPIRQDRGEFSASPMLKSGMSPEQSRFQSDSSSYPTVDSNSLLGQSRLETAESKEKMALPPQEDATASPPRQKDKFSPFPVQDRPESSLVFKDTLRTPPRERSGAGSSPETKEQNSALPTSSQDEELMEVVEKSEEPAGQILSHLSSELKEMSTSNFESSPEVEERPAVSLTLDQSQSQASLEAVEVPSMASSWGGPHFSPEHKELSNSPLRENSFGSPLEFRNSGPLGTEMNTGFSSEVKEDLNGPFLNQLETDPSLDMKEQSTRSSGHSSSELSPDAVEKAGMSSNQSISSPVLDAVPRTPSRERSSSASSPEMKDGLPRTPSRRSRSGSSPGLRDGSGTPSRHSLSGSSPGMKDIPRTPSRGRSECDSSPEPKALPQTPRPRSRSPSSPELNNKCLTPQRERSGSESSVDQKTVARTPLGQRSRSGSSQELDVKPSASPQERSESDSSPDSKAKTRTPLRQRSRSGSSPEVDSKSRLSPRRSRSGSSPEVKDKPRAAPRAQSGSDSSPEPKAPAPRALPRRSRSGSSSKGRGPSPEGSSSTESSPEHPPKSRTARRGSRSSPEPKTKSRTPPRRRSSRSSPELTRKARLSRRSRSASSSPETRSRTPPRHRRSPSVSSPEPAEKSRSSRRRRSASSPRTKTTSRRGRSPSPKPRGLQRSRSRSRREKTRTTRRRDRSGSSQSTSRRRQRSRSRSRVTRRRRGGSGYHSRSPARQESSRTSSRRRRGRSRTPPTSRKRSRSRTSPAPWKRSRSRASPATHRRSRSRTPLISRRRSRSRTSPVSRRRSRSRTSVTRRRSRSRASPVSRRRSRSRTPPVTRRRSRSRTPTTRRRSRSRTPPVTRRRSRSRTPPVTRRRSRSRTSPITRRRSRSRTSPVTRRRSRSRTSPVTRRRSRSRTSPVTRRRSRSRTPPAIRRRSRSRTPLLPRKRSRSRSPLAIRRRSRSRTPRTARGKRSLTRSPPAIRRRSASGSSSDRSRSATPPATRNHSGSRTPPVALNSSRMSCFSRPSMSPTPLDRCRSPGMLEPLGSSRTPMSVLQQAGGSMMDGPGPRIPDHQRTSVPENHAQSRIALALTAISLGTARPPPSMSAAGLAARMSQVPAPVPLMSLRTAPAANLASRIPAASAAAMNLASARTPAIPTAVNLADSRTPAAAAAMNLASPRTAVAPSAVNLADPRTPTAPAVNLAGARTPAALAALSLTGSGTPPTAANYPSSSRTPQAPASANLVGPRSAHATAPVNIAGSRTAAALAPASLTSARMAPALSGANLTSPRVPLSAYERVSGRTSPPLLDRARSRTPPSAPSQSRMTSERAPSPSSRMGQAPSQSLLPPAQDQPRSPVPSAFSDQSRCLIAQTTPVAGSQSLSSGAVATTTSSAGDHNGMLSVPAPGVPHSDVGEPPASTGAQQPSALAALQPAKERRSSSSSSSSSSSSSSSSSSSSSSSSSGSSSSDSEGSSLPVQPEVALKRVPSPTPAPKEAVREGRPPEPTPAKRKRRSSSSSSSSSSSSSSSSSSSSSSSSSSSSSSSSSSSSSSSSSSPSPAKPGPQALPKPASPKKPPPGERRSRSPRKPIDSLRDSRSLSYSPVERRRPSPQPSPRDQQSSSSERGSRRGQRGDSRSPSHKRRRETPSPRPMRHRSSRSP
UniProt O75177: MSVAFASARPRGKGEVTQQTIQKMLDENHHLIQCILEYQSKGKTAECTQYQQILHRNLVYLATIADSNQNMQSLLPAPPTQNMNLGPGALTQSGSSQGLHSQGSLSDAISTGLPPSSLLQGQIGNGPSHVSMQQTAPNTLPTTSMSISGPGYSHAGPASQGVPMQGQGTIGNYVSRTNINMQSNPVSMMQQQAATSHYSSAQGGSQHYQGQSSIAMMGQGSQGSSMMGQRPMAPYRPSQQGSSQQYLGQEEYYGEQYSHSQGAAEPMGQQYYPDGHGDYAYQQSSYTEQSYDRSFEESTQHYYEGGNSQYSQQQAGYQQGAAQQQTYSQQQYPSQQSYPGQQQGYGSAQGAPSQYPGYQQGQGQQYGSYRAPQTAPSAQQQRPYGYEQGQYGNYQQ

Results are given in words; binding and its absence hold for the method and conditions named. In cells and extracts the contact can be indirect. Here binding means that the protein was enriched with, or labelled near, the bait; the list need not be complete. No binding means not detected with the bait.

Common to all, as to test: affinity purification with mass spectrometry; tandem affinity purification: whole cell extracts of stable Hek293 clones on IgG sepharose, TEV cleavage, pre-clearing with protein A beads, immunoprecipitation with anti-MYC (PHF10: anti-TY1), peptide elution, SDS-PAGE, silver stain, in-gel trypsin digest, nano-LC FT mass spectrometry
In assay [1] the target is BCL7C^TAP (human) (UniProt Q8WUZ0).
In assay [2] the target is DPF2^TAP (human) (UniProt Q92785).
In assay [3] the target is INI1^TAP (human) (UniProt Q12824).

In the case of BAF45B (from UniProt Q92782 1-387), the binding result in assay [1] is “binds”.
Regarding BAF45C (from UniProt Q92784 1-378), the binding entry in assay [1] is reported as “binds”.
As to BAF45D (from UniProt Q92785 1-391), in assay [1], the binding result was “binds”.
For BAF53A (from UniProt O96019 1-429), the binding result in assay [1] and in assay [2] was “binds” throughout.
As to BAF57 (from UniProt Q969G3 1-411), the binding entry in assay [3], in assay [1] and in assay [2] was “binds” each time.
As for BAF60A (from UniProt Q96GM5 1-515), the binding result in assay [3], in assay [1] and in assay [2] was “binds” throughout.
BAF60B (from UniProt Q92925 1-531): the binding result in assay [3], in assay [1] and in assay [2] was “binds” in each case.
Consider BAF60C (from UniProt Q6STE5 1-483), for which the binding result in assay [1] and in assay [2] was “binds” in each case.
As for BAF155 (from UniProt Q92922 1-1105), the binding result in assay [3] and in assay [1] was “binds” each time.
Regarding BAF170 (from UniProt Q8TAQ2 1-1214), the binding result in assay [1] and in assay [2] was “binds” throughout.
As for BAF180 (from UniProt Q86U86 1-1689), the results for the binding result in assay [3], in assay [1] and in assay [2] were “binds”, “binds weakly” and “no binding”, respectively.
Regarding BCL7A (from UniProt Q4VC05 1-210), the binding entry in assay [2] is recorded as “binds”.
For BRD7 (from UniProt Q9NPI1 1-651), the binding result in assay [3] is reported as “binds”.
As to BRD9 (from UniProt Q9H8M2 1-597), the binding entry in assay [3] is reported as “no binding”; in assay [1], “binds”.
Regarding BRG1 (from UniProt P51532 1-1647), the binding result in assay [3], in assay [1] and in assay [2] was “binds” throughout.
Turning to BRM (from UniProt P51531 1-1590), the binding entry in assay [1] and in assay [2] was “binds” in each case.
In the case of “GLioma Tumor Suppressor Candidate Region gene 1 protein (from UniProt Q9NZM4 1-1560)”, in assay [1], the binding entry was “binds”.
Consider NUMA1 (from UniProt Q14980 1-2115), for which the binding result in assay [3], in assay [1] and in assay [2] was “no binding” each time.
For the substance SRRM2 (from UniProt Q9UQ35 1-2752), the binding entry in assay [3], in assay [1] and in assay [2] was “no binding” in each case.
Consider SS18 (from UniProt Q15532 1-418), for which, in assay [2], the binding entry is “binds”.
Regarding SS18L1 (from UniProt O75177 1-396), the binding entry in assay [1] and in assay [2] was “binds” in each case.
